Measurements reported in the supplement of paper PMC10849652.
This is one part of the list.

The chains behind the UniProt entries cited, without tags or fusion partners. Where a name states a change or a piece, a line headed by the entry shows the natural chain unless it says otherwise.
UniProt Q92843: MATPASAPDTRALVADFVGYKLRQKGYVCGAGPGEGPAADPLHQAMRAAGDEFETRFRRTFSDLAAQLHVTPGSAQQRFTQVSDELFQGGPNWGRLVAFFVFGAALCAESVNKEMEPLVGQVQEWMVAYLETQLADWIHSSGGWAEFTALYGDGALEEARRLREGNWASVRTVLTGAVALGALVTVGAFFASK
UniProt O15392, whole entry, looked up: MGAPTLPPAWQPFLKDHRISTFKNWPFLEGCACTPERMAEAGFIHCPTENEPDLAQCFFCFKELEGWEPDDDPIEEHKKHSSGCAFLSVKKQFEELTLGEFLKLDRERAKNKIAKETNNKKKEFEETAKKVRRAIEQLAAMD
UniProt Q4VC05, whole entry, looked up: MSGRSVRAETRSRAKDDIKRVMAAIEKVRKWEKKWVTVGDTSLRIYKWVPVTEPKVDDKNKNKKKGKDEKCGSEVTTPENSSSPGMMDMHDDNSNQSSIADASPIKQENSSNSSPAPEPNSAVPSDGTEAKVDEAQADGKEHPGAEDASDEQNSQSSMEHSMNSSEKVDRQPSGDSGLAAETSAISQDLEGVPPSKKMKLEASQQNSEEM
UniProt O43521, whole entry, looked up: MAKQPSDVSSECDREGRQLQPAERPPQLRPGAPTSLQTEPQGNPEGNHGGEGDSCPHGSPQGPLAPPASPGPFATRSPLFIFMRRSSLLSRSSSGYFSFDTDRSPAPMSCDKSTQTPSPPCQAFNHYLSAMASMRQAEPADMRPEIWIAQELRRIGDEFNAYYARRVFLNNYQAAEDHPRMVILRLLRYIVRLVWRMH
UniProt Q96B45: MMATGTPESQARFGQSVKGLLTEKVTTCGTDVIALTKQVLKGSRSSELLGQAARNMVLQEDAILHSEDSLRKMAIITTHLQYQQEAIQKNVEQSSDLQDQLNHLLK
UniProt P54132: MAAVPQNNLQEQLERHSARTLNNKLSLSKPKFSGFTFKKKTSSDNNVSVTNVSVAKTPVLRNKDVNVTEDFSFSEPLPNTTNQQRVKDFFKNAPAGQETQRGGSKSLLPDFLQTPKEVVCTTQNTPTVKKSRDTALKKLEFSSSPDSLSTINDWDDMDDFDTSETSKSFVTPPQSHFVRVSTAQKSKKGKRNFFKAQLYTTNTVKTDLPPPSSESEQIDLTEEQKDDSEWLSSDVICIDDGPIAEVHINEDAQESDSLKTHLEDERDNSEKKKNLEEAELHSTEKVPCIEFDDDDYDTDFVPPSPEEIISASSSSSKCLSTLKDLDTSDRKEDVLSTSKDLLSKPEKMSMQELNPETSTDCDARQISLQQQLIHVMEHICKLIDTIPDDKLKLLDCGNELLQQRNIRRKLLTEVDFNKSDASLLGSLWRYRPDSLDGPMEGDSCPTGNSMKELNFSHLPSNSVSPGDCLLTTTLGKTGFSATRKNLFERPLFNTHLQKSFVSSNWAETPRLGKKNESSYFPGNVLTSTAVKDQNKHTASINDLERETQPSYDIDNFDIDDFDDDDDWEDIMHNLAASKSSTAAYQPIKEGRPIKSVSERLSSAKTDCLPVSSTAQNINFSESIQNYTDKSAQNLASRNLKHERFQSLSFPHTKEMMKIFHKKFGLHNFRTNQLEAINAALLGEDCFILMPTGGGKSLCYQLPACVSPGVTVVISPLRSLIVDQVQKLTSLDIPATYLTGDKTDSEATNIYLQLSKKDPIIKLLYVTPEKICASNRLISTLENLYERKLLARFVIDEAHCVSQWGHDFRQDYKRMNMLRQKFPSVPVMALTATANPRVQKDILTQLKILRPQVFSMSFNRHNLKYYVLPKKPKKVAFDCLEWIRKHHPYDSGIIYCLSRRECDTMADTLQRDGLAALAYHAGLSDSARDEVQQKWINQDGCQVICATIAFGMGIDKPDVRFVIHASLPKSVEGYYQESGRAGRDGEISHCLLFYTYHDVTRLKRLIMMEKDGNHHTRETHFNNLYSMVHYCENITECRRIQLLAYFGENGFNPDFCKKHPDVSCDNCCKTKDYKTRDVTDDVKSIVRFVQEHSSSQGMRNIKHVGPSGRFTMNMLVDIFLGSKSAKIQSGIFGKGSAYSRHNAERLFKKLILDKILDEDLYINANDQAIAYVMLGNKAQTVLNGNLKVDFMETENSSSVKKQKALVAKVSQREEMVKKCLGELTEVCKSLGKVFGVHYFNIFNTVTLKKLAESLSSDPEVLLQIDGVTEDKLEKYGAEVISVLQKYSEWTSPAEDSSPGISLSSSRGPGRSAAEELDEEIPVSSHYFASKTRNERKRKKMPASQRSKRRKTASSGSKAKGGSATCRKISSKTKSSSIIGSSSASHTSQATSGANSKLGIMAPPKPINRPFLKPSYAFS
UniProt Q9UBB4: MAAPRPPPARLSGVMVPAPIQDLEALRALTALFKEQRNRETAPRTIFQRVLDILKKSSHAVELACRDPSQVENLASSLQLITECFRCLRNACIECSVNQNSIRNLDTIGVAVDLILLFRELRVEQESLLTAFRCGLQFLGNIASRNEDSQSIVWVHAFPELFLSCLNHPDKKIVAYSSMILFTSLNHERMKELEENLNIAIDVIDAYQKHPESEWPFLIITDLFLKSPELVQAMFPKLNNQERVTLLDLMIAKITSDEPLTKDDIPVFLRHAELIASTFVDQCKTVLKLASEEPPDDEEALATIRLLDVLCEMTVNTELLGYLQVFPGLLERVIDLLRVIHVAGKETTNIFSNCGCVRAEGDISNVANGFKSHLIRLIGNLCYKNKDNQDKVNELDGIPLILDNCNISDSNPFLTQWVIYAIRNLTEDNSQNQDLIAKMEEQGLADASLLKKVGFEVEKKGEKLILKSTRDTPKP
UniProt Q14CW9: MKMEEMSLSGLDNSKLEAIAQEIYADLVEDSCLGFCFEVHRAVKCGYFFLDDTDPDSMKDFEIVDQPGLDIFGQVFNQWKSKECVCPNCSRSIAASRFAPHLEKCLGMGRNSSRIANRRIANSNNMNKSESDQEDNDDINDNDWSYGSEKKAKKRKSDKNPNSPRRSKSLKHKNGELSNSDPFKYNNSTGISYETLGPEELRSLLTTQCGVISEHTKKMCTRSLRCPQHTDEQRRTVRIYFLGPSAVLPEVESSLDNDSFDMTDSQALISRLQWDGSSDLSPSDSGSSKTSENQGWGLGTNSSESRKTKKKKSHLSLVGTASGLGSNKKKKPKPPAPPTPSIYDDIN
UniProt O95816: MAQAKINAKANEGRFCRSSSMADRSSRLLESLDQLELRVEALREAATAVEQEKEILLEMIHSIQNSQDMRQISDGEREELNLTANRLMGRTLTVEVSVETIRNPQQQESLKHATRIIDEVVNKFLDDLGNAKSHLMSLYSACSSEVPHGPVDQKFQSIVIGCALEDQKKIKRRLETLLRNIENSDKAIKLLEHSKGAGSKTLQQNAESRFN
UniProt Q9NYM9: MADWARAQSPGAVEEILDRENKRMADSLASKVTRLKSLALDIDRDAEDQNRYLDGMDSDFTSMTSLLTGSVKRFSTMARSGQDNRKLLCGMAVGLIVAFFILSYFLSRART
UniProt Q9NY97: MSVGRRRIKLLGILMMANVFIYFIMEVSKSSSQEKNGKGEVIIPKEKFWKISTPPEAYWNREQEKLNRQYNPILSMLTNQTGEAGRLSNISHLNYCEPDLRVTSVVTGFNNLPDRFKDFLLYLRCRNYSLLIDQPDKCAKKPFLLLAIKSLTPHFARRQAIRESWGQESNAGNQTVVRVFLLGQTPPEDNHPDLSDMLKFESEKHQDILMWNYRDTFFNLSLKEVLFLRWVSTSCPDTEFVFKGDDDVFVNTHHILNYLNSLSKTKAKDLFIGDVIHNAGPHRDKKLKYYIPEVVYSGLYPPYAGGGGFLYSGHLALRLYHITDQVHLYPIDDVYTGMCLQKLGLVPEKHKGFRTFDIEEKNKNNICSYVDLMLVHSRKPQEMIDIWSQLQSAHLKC
UniProt P51572: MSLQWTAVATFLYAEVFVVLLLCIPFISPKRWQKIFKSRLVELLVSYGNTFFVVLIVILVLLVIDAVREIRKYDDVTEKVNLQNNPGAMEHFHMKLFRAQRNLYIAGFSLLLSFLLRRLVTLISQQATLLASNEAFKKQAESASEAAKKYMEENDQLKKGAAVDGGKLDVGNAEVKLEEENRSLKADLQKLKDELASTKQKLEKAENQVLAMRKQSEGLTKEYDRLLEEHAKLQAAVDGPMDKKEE
UniProt O75882: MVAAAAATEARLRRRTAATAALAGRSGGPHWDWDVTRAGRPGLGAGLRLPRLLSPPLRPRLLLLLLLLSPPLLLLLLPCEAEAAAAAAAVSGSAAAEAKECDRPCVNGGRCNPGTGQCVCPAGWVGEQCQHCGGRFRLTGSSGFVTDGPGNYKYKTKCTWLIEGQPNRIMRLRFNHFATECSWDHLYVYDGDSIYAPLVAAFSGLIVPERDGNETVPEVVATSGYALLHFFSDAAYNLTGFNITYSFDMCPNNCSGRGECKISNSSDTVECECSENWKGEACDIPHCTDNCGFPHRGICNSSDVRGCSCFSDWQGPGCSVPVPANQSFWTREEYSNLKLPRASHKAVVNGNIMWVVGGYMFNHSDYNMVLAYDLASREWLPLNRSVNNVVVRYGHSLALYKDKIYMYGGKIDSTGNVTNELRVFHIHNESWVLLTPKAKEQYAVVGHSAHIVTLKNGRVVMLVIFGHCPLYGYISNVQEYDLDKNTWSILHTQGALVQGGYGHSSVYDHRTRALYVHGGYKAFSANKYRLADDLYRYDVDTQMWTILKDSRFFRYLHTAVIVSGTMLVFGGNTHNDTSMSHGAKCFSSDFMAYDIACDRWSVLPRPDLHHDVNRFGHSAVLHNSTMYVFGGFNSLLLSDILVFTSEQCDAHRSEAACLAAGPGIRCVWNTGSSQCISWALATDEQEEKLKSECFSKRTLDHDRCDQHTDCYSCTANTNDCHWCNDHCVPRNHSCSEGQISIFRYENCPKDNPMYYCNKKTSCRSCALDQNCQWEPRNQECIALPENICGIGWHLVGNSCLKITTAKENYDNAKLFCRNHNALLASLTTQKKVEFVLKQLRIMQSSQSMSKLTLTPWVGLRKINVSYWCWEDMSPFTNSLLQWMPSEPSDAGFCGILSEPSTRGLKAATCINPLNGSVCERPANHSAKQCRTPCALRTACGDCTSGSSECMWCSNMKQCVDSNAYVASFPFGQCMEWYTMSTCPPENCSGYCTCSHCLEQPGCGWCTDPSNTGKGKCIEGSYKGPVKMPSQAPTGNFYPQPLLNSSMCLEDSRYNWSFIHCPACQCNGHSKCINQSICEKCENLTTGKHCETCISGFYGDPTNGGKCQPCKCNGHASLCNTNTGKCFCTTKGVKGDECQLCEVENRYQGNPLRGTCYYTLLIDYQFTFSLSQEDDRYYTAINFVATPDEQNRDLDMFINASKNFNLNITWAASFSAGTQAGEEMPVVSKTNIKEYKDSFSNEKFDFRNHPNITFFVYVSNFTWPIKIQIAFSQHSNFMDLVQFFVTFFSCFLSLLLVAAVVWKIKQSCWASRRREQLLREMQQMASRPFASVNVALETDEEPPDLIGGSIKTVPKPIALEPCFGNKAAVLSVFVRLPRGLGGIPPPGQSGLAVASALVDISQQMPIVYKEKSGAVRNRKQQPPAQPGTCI
UniProt H3BUF6: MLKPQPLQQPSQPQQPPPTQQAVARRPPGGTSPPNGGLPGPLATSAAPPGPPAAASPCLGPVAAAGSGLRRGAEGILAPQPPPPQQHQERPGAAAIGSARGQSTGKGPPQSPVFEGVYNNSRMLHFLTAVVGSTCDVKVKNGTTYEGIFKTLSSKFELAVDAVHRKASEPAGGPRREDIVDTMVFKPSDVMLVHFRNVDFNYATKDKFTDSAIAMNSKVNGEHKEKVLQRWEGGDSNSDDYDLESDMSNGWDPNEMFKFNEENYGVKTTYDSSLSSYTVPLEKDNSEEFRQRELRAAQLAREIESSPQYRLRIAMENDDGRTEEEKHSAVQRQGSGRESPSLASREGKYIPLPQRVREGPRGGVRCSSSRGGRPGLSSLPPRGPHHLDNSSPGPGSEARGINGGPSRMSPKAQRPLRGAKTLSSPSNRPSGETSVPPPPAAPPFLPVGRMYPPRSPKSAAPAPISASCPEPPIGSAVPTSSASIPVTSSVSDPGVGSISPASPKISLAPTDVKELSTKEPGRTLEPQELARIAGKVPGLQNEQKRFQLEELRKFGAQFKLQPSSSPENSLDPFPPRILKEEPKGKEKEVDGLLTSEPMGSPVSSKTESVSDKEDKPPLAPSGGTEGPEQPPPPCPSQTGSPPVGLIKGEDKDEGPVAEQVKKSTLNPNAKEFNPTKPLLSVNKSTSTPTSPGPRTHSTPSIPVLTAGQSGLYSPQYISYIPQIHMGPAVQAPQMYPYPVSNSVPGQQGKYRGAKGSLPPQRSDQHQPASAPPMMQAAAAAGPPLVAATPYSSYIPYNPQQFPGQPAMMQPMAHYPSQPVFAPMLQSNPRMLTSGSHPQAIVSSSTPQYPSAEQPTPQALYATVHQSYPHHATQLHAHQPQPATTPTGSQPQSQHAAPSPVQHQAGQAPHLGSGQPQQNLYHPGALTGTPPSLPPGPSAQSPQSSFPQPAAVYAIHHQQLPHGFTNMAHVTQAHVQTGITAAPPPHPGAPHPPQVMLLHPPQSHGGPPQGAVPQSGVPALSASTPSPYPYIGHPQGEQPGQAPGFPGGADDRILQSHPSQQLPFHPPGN

Key:
Assay in all cases: log2 fold change, soluble protein after heating vs DMSO (PISA); higher = thermal stabilisation; K562 cells, 10 uM, 30 min; active = over 0.2 and 3.5 SD of the protein, either way, in both replicates (recomputed)
erlotinib = compound: C#Cc1cccc(Nc2ncnc3cc(OCCOC)c(OCCOC)cc23)c1 [erlotinib]
Summary of the method: (§1)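 Thermal stability values are relative to control samples and come from duplicates. They are expressed as log2 fold changes. For measurement, K562 cells (2×10^6 cells/mL) received 10 μM compound for 30 min, and aliquots were heated for 3 min over 48°C-58°C, pooled, and extracted at 4°C in PBS with 0.5% NP-40. Soluble protein, the supernatant after 21,000xg for 90 min, was quantified by TMTpro 16plex LC-MS/MS with equalised channel sums.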

[1] = compound: C/C(=N\NC(=O)C1=CC(=CC=C1)S(=O)(=O)N2CCOCC2)/C3=C(C=CC(=C3)Cl)O
Summary of the method: as §1

[2] = compound: C1=CC(=CC=C1C2=NC3=C(N2)C=C(C=C3)C(=O)N)OC4=CC=C(C=C4)Cl
Summary of the method: as §1

[3] = compound: C1=CC2=C(C=CC(=C2)/C=C\3/C(=O)NC(=NCC4=CC=CS4)S3)N=C1
Summary of the method: as §1

[4] = compound: C1=CC2=NC=CN=C2C=C1/C=C/3\C(=O)NC(=O)S3
Summary of the method: as §1

[5] = compound: C1=CC=C(C=C1)C2=NC(=C(N2)C3=CC=NC=C3)C4=CC(=C(C=C4)Cl)O
Summary of the method: as §1

[6] = compound: C1=CC=C2C(=C1)C3=NNC4=CC=CC(=C43)C2=O
Summary of the method: as §1

[7] = compound: C1CCN(C1)C(=O)NC2=CC=CC(=C2)NC3=NC=C(C(=N3)NCCC4=CN=CN4)Br
Summary of the method: as §1

[8] = compound: C1CN(CCC1(CC2=CC=C(C=C2)Cl)N)C3=NC=NC4=C3C=CN4
Summary of the method: as §1

[9] = compound: C1=CC(=C(C=C1Cl)C2=NC3=NC=CN=C3C(=N2)NC4=CC=NC=C4)F
Summary of the method: as §1

Measured: log2 fold change

ATXN3 isoform 1 (UniProt P54252)
inactive: erlotinib 0.082 | [1] 0.107 | [2] 0.038 | [3] -0.042 | [4] 0.082 | [5] -0.038 | [6] -0.115 | [7] -0.073 | [8] -0.002

BCS1L (UniProt Q9Y276)
inactive: erlotinib -0.017 | [1] -0.02 | [9] 0.014 | [2] 0.028 | [3] 0.005 | [4] 0.004 | [5] -0.025 | [6] -0.016 | [7] 0.028 | [8] 0.048

BAX isoform 2 (UniProt Q07812)
inactive: erlotinib 0.018 | [1] -0.019 | [9] 0.017 | [2] -0.005 | [3] -0.037 | [4] 0.019 | [5] -0.002 | [6] 0.052 | [7] -0.079 | [8] 0.042

AVL9 (UniProt Q8NBF6)
inactive: erlotinib 0.051 | [1] 0.071 | [9] 0.085 | [2] 0.035 | [3] 0.067 | [4] 0 | [5] -0.005 | [6] 0.003 | [7] 0.013 | [8] 0.019

BCL2L2 isoform 2 (UniProt Q92843)
inactive: erlotinib -0.069 | [1] 0.013 | [9] -0.131 | [2] -0.033 | [3] -0.003 | [4] 0.058 | [5] -0.017 | [6] -0.048 | [7] 0.037 | [8] -0.101

B3GNTL1 (UniProt Q67FW5)
inactive: erlotinib 0.216 | [1] -0.011 | [9] -0.077 | [2] -0.021 | [3] 0.099 | [4] 0.032 | [5] -0.051 | [6] -0.101 | [7] 0.036 | [8] 0.05

BIRC5 (UniProt O15392)
inactive: erlotinib -0.061 | [1] -0.039 | [9] -0.051 | [2] 0.044 | [3] -0.022 | [4] 0.065 | [5] -0.057 | [6] -0.109 | [7] 0.072 | [8] 0.071

BAG6 isoform 3 (UniProt P46379)
inactive: erlotinib -0.041 | [1] 0.056 | [9] 0.034 | [2] -0.036 | [3] -0.02 | [4] 0.035 | [5] -0.016 | [6] -0.043 | [7] -0.014 | [8] -0.122

BCL7A isoform 2 (UniProt Q4VC05)
inactive: erlotinib -0.059 | [1] 0 | [9] -0.191 | [2] 0.026 | [3] -0.043 | [6] 0.03 | [7] 0.038 | [8] -0.007

BCL2L11 (UniProt O43521)
inactive: erlotinib 0.011 | [1] -0.03 | [9] -0.024 | [2] -0.058 | [3] -0.128 | [5] 0.026 | [6] 0.017 | [7] -0.189 | [8] 0.196

BORCS7 (UniProt Q96B45)
inactive: erlotinib 0.061 | [1] 0.033 | [2] 0.024 | [3] 0.136 | [4] 0.059 | [6] 0.01 | [7] -0.053 | [8] 0.132

BRAF (UniProt P15056)
inactive: erlotinib 0.031 | [1] 0.057 | [9] 0.034 | [2] 0.007 | [3] 0.08 | [4] -0.012 | [6] -0.054 | [7] -0.088 | [8] 0.024

BLM (UniProt P54132)
inactive: erlotinib -0.038 | [1] 0.015 | [2] -0.021 | [3] 0.146 | [4] 0.011 | [5] 0.027 | [6] 0.001 | [7] -0.039 | [8] 0.049

ATXN10 (UniProt Q9UBB4)
inactive: erlotinib -0.001 | [1] 0.063 | [9] 0.07 | [2] -0.007 | [3] 0.031 | [4] 0.03 | [5] 0.021 | [6] 0.019 | [7] 0.045 | [8] 0.033

ATXN7L3 isoform 2 (UniProt Q14CW9)
inactive: erlotinib 0.069 | [1] -0.31 | [2] 0.071 | [3] 0.025 | [4] 0.159 | [5] -0.122 | [6] -0.037

BRD3 (UniProt Q15059)
inactive: erlotinib -0.282 | [1] -0.072 | [2] 0.061 | [3] -0.021 | [4] 0.071 | [5] 0.128 | [6] 0.059 | [7] -0.163 | [8] -0.024

BAG2 (UniProt O95816)
inactive: erlotinib -0.057 | [1] -0.018 | [9] -0.267 | [2] -0.013 | [3] -0.1 | [4] 0.097 | [5] 0.005 | [6] 0.025 | [7] 0.073 | [8] -0.048

BRIP1 (UniProt Q9BX63)
inactive: erlotinib -0.009 | [1] 0.076 | [9] -0.153 | [2] 0.018 | [3] 0.075 | [4] -0.082 | [5] -0.048 | [6] 0.023 | [7] -0.064 | [8] -0.045

BCCIP (UniProt Q9P287)
inactive: erlotinib -0.024 | [1] 0.045 | [9] 0.019 | [2] -0.027 | [3] -0.029 | [4] 0.015 | [5] 0.013 | [6] 0.035 | [7] -0.036 | [8] 0.114

BAIAP2 (UniProt Q9UQB8)
inactive: erlotinib 0.033 | [1] 0.089 | [9] 0.012 | [2] -0.008 | [3] 0.018 | [4] 0.017 | [5] 0.014 | [6] -0.063 | [7] -0.101 | [8] -0.016

AURKAIP1 (UniProt Q9NWT8)
inactive: erlotinib -0.316 | [1] -0.249 | [9] -0.287 | [2] 0.073 | [3] -0.082 | [5] -0.104 | [6] 0.053 | [7] 0.062 | [8] -0.269

Two entries picked at random from the list so far:
BRIP1 (UniProt Q9BX63)
inactive: erlotinib -0.009 | [1] 0.076 | [9] -0.153 | [2] 0.018 | [3] 0.075 | [4] -0.082 | [5] -0.048 | [6] 0.023 | [7] -0.064 | [8] -0.045

BAG2 (UniProt O95816)
inactive: erlotinib -0.057 | [1] -0.018 | [9] -0.267 | [2] -0.013 | [3] -0.1 | [4] 0.097 | [5] 0.005 | [6] 0.025 | [7] 0.073 | [8] -0.048

The results go on:

BAK1 (UniProt Q16611)
inactive: erlotinib -0.015 | [1] 0.047 | [9] 0.143 | [2] 0.011 | [3] 0.008 | [4] 0.137 | [6] 0.084 | [7] -0.04 | [8] 0.027

BCCIP isoform 2 (UniProt Q9P287)
inactive: erlotinib -0.1 | [1] 0.023 | [9] 0.027 | [2] 0.026 | [3] -0.025 | [4] 0.003 | [5] 0.012 | [6] -0.007 | [7] -0.002 | [8] 0.066

BCL9 (UniProt O00512)
inactive: erlotinib 0.007 | [1] 0.002 | [9] 0.069 | [2] 0.167 | [3] 0.003 | [5] 0.05 | [6] 0.023 | [7] 0.106 | [8] 0.095

BET1L (UniProt Q9NYM9)
inactive: erlotinib 0.028 | [1] 0.201 | [9] 0.056 | [2] -0.078 | [3] 0.074 | [5] -0.045 | [6] -0.01 | [7] -0.031 | [8] -0.028

B3GNT2 (UniProt Q9NY97)
inactive: erlotinib -0.073 | [1] 0.008 | [9] 0 | [2] 0.057 | [3] 0.065 | [4] 0.016 | [5] 0.054 | [6] 0.009 | [7] -0.133 | [8] 0.037

BLVRA (UniProt C9J1E1)
inactive: erlotinib 1.14 | [1] -0.151 | [2] -0.133 | [3] 0.287 | [4] -0.02 | [6] -0.375

BCAP31 isoform 2 (UniProt P51572)
inactive: erlotinib 0.004 | [1] -0.014 | [9] 0.031 | [2] -0.011 | [3] -0.018 | [4] 0.031 | [5] -0.018 | [6] 0.043 | [7] 0.017 | [8] 0.038

ATRN (UniProt O75882)
inactive: erlotinib 0.006 | [1] 0.037 | [9] -0.113 | [2] -0.148 | [3] 0.098 | [4] 0.04 | [6] -0.166 | [7] -0.052 | [8] 0.018

BRMS1 (UniProt Q9HCU9)
inactive: [9] 0.075 | [3] 0.09 | [6] -0.041 | [7] 0.024 | [8] 0.119
active: [1] -0.656

ATXN2L (UniProt H3BUF6)
inactive: [4] -0.04 | [5] 0.219

BCL7C isoform 2 (UniProt Q8WUZ0)
inactive: erlotinib -0.163 | [9] -0.452 | [2] 0.143 | [4] 0.074
